Paper PMC8914340
No constants are given. Whether binding was seen depends on the method and setting. In cells and extracts the contact can be indirect. Some entries that bind do so weakly or less than the wild type.

Sequences of proteins named here, by UniProt entry; tags and fusion partners are left off. Residues count along the entry.
UniProt P01137, residues 30-390: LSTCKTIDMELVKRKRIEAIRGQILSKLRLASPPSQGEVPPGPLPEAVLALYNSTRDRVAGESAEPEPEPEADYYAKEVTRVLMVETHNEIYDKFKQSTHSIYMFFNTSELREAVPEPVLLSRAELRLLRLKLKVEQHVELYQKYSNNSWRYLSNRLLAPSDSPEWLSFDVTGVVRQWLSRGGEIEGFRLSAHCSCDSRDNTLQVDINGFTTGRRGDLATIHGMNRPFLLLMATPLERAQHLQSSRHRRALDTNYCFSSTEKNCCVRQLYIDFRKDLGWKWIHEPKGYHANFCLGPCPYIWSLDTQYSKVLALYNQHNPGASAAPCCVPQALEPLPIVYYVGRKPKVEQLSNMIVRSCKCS
UniProt P03470: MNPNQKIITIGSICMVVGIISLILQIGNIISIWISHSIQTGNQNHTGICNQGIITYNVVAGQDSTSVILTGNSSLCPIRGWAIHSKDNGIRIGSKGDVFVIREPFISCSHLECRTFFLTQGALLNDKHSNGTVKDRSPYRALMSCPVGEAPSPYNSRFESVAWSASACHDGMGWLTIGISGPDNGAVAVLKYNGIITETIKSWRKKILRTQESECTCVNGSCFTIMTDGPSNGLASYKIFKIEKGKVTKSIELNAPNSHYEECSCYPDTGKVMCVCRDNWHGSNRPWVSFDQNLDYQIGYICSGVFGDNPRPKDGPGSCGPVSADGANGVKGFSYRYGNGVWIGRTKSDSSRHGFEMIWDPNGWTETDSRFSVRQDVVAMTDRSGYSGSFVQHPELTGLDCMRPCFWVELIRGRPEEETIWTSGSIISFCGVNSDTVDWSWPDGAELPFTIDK

Target: latent TGF-β (UniProt P01137)
Test: co-IP

Substance: Neuraminidase (NA) of influenza A virus A/WSN/1933 (H1N1) (from UniProt P03470 1-453)
- binding: binds
